The record followed here is publication PMC3234227.

No constants are given. Whether binding was seen depends on the method and setting. Binding seen in cells or lysates may run through a third protein.

The target of this experiment is FLAG-SQSTM1 (HeLa) (human), Q13501. Put plainly: co-IP. The following applies: remark: other sources report otherwise.

B1: endogenous ATG5 (HeLa), Q9H1Y0 1-275 (protein)
chain: MTDDKDVLRDVWFGRIPTCFTLYQDEITEREAEPYYLLLPRVSYLTLVTDKVKKHFQKVMRQEDISEIWFEYEGTPLKWHYPIGLLFDLLASSSALPWNITVHFKSFPEKDLLHCPSKDAIEAHFMSCMKEADALKHKSQVINEMQKKDHKQLWMGLQNDRFDQFWAINRKLMEYPAEENGFRYIPFRIYQTTTERPFIQKLFRPVAADGQLHTLGDLLKEVCPSAIDPEDGEKKNQVMIHGIEPMLETPLQWLSEHLSYPDNFLHISIIPQPTD
Consider B1, for which the binding entry is “no binding”.
